These results are taken from publication PMC5833644.

Amino acid sequences for entries named in this document (tags omitted).
UniProt P11166: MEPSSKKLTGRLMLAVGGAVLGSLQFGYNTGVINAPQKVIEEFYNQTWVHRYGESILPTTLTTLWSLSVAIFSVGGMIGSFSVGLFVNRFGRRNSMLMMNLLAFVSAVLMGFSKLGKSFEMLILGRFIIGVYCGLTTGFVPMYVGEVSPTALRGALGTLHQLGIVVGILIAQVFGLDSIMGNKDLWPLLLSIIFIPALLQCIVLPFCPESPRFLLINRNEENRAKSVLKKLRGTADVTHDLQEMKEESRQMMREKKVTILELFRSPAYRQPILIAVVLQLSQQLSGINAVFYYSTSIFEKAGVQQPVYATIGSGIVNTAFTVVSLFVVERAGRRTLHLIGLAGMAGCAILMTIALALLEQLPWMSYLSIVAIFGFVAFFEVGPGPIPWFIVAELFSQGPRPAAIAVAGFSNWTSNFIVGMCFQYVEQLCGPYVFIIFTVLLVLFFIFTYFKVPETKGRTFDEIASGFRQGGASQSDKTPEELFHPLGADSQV

Results are given in words; binding and its absence hold for the method and conditions named. For some assays here: Binding seen in cells or lysates may run through a third protein. Some results given as binding are weak or reduced against the parent protein; the word gives no strength.

Experiment [1] concerns the target T1, MUC13 (human (endogenous in HPAF-II and AsPC1)) (UniProt Q9H3R2).
T1 sequence: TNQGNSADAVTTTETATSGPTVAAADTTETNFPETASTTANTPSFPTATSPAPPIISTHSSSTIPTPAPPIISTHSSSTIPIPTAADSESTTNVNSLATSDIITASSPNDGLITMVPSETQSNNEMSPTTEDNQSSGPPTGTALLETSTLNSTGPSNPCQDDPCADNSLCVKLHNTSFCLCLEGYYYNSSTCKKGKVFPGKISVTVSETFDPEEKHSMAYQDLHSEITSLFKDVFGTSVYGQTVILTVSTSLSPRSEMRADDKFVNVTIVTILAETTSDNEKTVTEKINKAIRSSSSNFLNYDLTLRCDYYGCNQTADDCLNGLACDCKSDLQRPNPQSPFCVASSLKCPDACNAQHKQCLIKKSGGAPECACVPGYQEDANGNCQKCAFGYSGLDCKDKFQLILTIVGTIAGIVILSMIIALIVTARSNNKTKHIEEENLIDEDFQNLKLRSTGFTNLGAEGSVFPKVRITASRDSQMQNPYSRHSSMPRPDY
Put plainly: proximity ligation; in situ PLA (Duolink Red Starter kit) in HPAF-II cells; anti-mouse minus and anti-rabbit plus probes; confocal microscopy.

The target in experiment [2] is T1, MUC13 (human (endogenous in HPAF-II and AsPC1)). Put plainly: co-IP; reciprocal co-immunoprecipitation from whole-cell lysates of AsPC1 and HPAF-II cells; 500 µg of protein incubated with antibodies at 4 °C overnight.
For experiment [3] the target is unchanged. Put plainly: condition: only cells treated with sulfasalazine (0.9 mM) for 24 h; co-IP; reciprocal co-immunoprecipitation from lysates of HPAF-II cells treated with sulfasalazine (0.9 mM) for 24 h.
The target is the same in experiment [4]. Briefly: co-capping assay; HPAF-II and AsPC1 cells incubated with NHS-Rhodamine-labeled anti-MUC13 mAb (30 µg/ml) 1 h at 4 °C, plated at 37 °C for about 2 h, then stained for Glut-1 or α-tubulin; confocal microscopy.

On to “glucose transporter-1 (Glut-1) (from UniProt P11166 1-492)”, for which the binding entry was “binds” in experiment [1], “binds” in experiment [2], “no binding” in experiment [3] and “binds” in experiment [4].

As for “HER2 (from UniProt P04626 23-1255) (receptor)”, in experiment [1], the binding entry is on record as “binds”.
